Results are given in words; binding and its absence hold for the method and conditions named. Some binding calls cover weakened binding; strength is not graded here. Sequences can lack the tags named with a protein.
Tests used:
[1] = biological target: Laminin-1 (human placenta) (human) (UniProt P25391); assay: western blot overlay and ELISA (FIG. 8)
[2] = biological target: Laminin-1 (human placenta) (human) (UniProt P25391); assay: western blot overlay and ELISA (discussion of the examples)
[3] = biological target: Laminin-1 (human placenta) (human) (UniProt P25391); assay: ELISA: rPTRP coated at 5-20 µg/ml, laminin 0.5 µg/ml, anti-ECM antibody
[4] = biological target: Laminin-1 (human placenta) (human) (UniProt P25391); assay: western blot overlay: rPTRP on the blot, ECM protein 5 µg/ml, anti-ECM antibody

The chains behind the UniProt entries cited, without tags or fusion partners. Where a name states a change or a piece, a line headed by the entry shows the natural chain unless it says otherwise.
UniProt P25391: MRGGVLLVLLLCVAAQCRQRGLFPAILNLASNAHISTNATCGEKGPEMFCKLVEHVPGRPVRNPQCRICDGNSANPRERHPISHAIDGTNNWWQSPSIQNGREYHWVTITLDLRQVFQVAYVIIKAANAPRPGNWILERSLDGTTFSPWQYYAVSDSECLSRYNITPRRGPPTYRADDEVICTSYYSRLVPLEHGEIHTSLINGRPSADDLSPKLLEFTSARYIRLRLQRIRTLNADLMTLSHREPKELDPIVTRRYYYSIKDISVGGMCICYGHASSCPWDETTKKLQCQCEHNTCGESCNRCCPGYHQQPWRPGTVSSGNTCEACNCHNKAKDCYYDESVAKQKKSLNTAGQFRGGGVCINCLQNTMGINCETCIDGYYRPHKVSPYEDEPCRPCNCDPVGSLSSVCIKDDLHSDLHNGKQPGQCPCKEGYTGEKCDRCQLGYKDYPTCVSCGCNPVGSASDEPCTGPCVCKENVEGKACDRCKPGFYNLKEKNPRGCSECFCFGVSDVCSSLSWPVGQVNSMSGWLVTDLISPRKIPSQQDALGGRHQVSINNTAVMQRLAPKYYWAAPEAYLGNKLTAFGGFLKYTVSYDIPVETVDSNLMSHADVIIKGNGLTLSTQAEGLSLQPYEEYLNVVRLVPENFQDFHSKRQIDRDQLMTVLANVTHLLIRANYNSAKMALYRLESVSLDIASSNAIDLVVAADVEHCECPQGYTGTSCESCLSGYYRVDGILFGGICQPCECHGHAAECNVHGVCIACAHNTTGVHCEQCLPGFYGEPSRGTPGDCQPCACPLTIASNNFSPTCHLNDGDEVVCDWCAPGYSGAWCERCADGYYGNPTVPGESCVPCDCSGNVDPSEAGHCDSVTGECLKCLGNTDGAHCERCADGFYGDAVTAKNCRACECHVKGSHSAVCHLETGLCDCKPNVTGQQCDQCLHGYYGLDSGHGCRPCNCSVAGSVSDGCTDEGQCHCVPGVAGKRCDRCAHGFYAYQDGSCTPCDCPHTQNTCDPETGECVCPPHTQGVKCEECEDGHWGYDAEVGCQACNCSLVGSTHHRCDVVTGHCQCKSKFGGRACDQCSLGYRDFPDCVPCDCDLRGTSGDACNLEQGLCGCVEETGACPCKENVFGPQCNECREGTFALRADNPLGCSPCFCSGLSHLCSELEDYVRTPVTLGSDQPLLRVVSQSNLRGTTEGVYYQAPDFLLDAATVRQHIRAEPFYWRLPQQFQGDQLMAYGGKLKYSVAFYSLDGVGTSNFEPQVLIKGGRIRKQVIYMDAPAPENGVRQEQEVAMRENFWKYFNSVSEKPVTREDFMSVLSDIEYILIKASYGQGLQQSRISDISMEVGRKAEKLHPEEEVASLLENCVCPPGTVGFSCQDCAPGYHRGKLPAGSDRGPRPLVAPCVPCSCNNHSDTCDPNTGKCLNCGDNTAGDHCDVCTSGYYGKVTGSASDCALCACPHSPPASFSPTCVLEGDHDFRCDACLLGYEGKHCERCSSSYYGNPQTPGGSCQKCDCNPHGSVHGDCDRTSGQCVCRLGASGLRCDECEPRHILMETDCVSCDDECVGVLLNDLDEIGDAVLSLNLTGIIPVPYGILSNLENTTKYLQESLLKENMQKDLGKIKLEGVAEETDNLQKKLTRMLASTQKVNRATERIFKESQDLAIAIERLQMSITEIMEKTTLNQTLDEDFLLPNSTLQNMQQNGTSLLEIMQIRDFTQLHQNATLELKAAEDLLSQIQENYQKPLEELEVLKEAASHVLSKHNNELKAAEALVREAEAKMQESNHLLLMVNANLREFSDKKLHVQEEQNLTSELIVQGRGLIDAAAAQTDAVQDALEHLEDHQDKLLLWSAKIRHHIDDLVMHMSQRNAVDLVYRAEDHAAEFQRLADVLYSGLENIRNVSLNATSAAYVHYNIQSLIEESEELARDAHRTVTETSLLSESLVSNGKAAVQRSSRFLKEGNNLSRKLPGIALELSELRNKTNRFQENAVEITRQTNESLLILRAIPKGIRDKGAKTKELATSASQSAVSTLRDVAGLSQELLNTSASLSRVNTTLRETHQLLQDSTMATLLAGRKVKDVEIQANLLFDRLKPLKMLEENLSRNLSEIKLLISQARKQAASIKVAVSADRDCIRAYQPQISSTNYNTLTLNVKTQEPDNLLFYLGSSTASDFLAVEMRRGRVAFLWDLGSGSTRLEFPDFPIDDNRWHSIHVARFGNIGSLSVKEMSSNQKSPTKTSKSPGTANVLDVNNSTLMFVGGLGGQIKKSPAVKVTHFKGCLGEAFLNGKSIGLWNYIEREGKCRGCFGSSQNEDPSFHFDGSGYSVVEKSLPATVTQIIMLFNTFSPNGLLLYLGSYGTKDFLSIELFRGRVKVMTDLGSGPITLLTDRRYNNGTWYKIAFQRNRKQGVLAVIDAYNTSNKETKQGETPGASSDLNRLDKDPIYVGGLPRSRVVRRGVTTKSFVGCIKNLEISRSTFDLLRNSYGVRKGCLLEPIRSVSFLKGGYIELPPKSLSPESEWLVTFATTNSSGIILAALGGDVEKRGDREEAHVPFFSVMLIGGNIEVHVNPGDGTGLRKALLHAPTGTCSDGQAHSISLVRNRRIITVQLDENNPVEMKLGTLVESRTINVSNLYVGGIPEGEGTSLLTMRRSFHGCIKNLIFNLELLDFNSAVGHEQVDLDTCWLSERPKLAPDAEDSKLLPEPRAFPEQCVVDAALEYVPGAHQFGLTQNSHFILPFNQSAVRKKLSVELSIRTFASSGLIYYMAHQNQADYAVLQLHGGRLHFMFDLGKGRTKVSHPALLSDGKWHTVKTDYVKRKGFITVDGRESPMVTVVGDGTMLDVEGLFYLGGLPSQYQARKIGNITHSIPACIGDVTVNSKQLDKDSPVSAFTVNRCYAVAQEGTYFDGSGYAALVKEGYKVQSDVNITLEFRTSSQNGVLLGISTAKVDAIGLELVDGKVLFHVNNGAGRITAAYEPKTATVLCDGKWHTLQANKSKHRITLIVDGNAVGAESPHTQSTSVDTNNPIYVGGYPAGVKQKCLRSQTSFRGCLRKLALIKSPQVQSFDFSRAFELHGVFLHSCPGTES

Measured: binding

B1: purified recombinant PTRP (rPTRP), GST tag cleaved (other)
chain: MDVALGVAVTDRVARLALVDSAAPGTVIDQFVLDVAEHPVEVLTETVVGTDRSLAGENHRLVATRLCWPDQAKADELQHALQDSGVHDVAVISEAQAATALVGAAHAGSAVLLVGDETATLSVVGDPDAPPTMVAVAPVAGADATSTVDTLMARLGDQALAPGDVFLVGRSAEHTTVLADQLRAASTMRVQTPDDPTFALARGAAMAAGAATMAHPALVADATTSLPRAEAGQSGSEGEQLAYSQASDYELLPVDEYEEHDEYGAAADRSAPLSRRSLLIGNAVVAFAVIGFASLAVAVAVTIRPTAASKPVEGHQNAQPGKFMPLLPTQQQAPVPPPPPDDPTAGFQGGTIPAVQNVVPRPGTSPGVGGTPASPAPEAPAVPGVVPAPVPIPVPIIIPPFPGWQPGMPTIPTAPPTTPVTTSATTPPTTPPTTPVTTPPTTPPTTPVTTPPTTPPTTPVTTPPTTVAPTTVAPTTVAPTTVAPTTVAPATATPTTVAPQPTQQPTQQPTQQMPTQQQTVAPQTVAPAPQPPSGGRNGSGGGDLFGGF
notes: also called Proline-Threonine Repetitive Protein; Rv0538
binds: all assays above

From patent US20110104194A1 (NEW YORK UNIVERSITY, published 2011)
